No constants are given. Whether binding was seen depends on the method and setting. Some binding calls cover weakened binding; strength is not graded here.
Biological target: T1, wild-type cJun, P05412
T1 chain: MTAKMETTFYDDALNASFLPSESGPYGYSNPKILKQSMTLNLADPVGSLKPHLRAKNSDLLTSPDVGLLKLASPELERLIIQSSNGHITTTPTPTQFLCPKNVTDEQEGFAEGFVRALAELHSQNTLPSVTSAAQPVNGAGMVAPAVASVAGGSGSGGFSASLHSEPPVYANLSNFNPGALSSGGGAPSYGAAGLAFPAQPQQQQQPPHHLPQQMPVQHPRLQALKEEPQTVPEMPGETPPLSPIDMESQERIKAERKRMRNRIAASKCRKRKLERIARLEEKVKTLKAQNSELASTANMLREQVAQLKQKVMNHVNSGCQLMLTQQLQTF
Assay: protein interaction without DNA (mammalian two hybrid analysis); ATF2 is the reference that binds better than ATF2-m5
Conditions: remark: other sources report otherwise

binding: binds
B1: ATF2, P15336 1-505 (protein, UniProt P15336 1-505, looked up)
chain: MKFKLHVNSARQYKDLWNMSDDKPFLCTAPGCGQRFTNEDHLAVHKHKHEMTLKFGPARNDSVIVADQTPTPTRFLKNCEEVGLFNELASPFENEFKKASEDDIKKMPLDLSPLATPIIRSKIEEPSVVETTHQDSPLPHPESTTSDEKEVPLAQTAQPTSAIVRPASLQVPNVLLTSSDSSVIIQQAVPSPTSSTVITQAPSSNRPIVPVPGPFPLLLHLPNGQTMPVAIPASITSSNVHVPAAVPLVRPVTMVPSVPGIPGPSSPQPVQSEAKMRLKAALTQQHPPVTNGDTVKGHGSGLVRTQSEESRPQSLQQPATSTTETPASPAHTTPQTQSTSGRRRRAANEDPDEKRRKFLERNRAAASRCRQKRKVWVQSLEKKAEDLSSLNGQLQSEVTLLRNEVAQLKQLLLAHKDCPVTAMQKKSGYHTADKDDSSEDISVPSSPHTEAIQHSSVSTSNGVSSTSKAEAVATSVLTQMADQSTEPALSQIVMAPSSQSQPSGS

Reference: patent US20020165153A1
